{"source": "patent US12667584B2", "about": "“Adenosine analog and its use in regulating the circadian clock” (NATIONAL INSTITUTE OF BIOLOGICAL SCIENCES, BEIJING, priority 2017, dated 2026)", "key": {"[1]": {"tested_on": "Per2:luc U2OS cells", "assay": "Real-time monitoring of circadian oscillation in lumicycle, Per2:luc U2OS cells", "format": "cell-based, human", "procedure": "Cell culture, drug treatment and Real-Time Monitoring of Circadian Oscillations: Per2-Luc reporter U2OS cells (D15) and Bmal1-Luc reporter U2OS cells (C26) cells were kept in DMEM medium (Gibco), supplemented with 10% FBS (Gibco) and 1% penicillin streptomycin mixture (Gibco). For Circadian Oscillation monitored with lumicycle (Actimetrics), cells were seeded at the density of 10^6 per 3.5 cm dish (Z688851-30EA). The medium was changed into XM medium (PH7.2, 10 mM HEPES, 350 mg/I bicarbonate, 1×B27, 100 IU/ml penicillin, 100 μg/ml streptomycin, 10 μg/ml gentamycin, and 100 μM d-Luciferin) 2 days after cell seeding. 3.5 cm dish was then sealed with high-vacuum grease (Dow Corning) and microscope cover glass, and transferred into lumicycle which was placed in an incubator (37° C.). For Drug treatment, 3.5 cm dish was taken out from lumicycle quickly at indicated time. After chemical was added into the medium, the dish was sealed again and put back into lumicycle. For Circadian Oscillation monitored with Tecan (Perkinelmer), cells were seeded at the density of […] per well for 384-well plate (CLS3610-48EA). 2 days later, the medium was changed into premixed XM medium with different chemicals with or without pentostatin (5 μg/ml). The plate was then sealing with sealing film (Sangon Biotech) and put into Tecan. Data from cells were collected in the Tecan luminometer at 37° C. for 5˜7 days.\nThe inventors conducted a chemical screen using the human osteosarcoma U2OS cell line so as to discover small molecules that modify the phase of the intracellular clock in mammals. In the primary screen, the inventors used two reporter lines of U2OS harboring a luciferase gene under control of either Per2 or Bmal1 promoter (named Per2-dLuc or Bmal1-dLuc cells), and set the threshold for at least 6 h phase-changes with no apparent amplitude-reduction in both cell lines. […] An institutional pilot chemical library consisting of approximately 10,000 small molecules was applied in this study. […]"}, "[2]": {"tested_on": "Per2-Luc reporter U2OS cells (D15)", "assay": "Circadian phase shift cell assay in D15 cells, 384 well plate, Tecan, with or without pentostatin", "format": "cell-based, human", "conditions": "positive hits"}}, "note": "Some of these results come from one statement about several compounds together. For some of these results: At least one structure is not confirmed: it was looked up by name or label, or the drawing left a doubt."}
{"smiles": "Nc1nccc2c1ncn2[C@@H]1O[C@H](CO)[C@@H](O)[C@H]1O", "note": "[3-deazaadenosine, 3-Deazaadenosine]", "values": [{"measurement": "phase change of Per2-dLuc", "setting": "[1]", "value": "up to 12 h"}]}
{"smiles": "Nc1ncnc2c1ncn2[C@@H]1O[C@H](CO)[C@H](O)[C@H]1O", "note": "[(3′R)-adenosine, 3′-(R)-adenosine]", "values": [{"measurement": "phase change of Per2-dLuc", "setting": "[1]", "value": "up to 12 h"}]}
{"smiles": "OC[C@H]1O[C@@H](n2cnc3c(NCc4ccccc4)ncnc32)[C@H](O)[C@@H]1O", "note": "[N6-Benzyl Adenosine]", "values": [{"measurement": "phase change of Per2-dLuc", "setting": "[1]", "value": "up to 12 h"}]}
{"smiles": "Nc1ncnc2c1c(Br)cn2[C@H]1O[C@H](CO)C[C@H]1O", "note": "[NQZ-193]", "values": [{"measurement": "shift the circadian clock at the concentration", "setting": "[2]", "value": "less than 100 μM"}]}
{"smiles": "Nc1ncnc2c1c(Br)cn2[C@@H]1O[C@H](CO)C[C@H]1O", "note": "[NQZ-194]", "values": [{"measurement": "shift the circadian clock at the concentration", "setting": "[2]", "value": "less than 100 μM"}]}
{"smiles": "[2H]c1nc(N)c2nc([2H])n([C@@H]3O[C@H](CO)C[C@H]3O)c2n1", "note": "[NQZ-197]", "values": [{"measurement": "shift the circadian clock at the concentration", "setting": "[2]", "value": "less than 100 μM"}]}
{"smiles": "[2H]c1nc(N)c2nc([2H])n([C@@H]3O[C@H](CO)[C@H](O)[C@H]3O)c2n1", "note": "[NQZ-198]", "values": [{"measurement": "shift the circadian clock at the concentration", "setting": "[2]", "value": "less than 100 μM"}]}
